Assay results reported in article PMC3585373.
These are yes or no findings as the source states them, for the method shown. Binding seen in cells or lysates may run through a third protein. Some results given as binding are weak or reduced against the parent protein; the word gives no strength. Tags and fused reporters may be left off the sequences shown.

Amino acid sequences for entries named in this document (tags omitted).
UniProt P63208: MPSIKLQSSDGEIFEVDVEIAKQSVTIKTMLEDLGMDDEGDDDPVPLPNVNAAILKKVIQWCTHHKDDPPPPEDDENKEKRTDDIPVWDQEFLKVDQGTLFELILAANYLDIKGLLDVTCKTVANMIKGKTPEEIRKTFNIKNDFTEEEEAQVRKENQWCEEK

Experiments:
Test in all cases: co-IP; HEK 293T cells transfected with the indicated plasmids, lysed in Co-IP buffer (1% NP40, 150 mM NaCl, 20 mM Tris pH 7.4, 1 mM EDTA, 10% glycerol, protease inhibitors); 1 mg lysate with primary antibody, then protein A sepharose; SDS-PAGE and immunoblotting
GFP-FBXO31 WT = molecular target: T1, GFP-FBXO31 WT (UniProt Q5XUX0)
T1 sequence: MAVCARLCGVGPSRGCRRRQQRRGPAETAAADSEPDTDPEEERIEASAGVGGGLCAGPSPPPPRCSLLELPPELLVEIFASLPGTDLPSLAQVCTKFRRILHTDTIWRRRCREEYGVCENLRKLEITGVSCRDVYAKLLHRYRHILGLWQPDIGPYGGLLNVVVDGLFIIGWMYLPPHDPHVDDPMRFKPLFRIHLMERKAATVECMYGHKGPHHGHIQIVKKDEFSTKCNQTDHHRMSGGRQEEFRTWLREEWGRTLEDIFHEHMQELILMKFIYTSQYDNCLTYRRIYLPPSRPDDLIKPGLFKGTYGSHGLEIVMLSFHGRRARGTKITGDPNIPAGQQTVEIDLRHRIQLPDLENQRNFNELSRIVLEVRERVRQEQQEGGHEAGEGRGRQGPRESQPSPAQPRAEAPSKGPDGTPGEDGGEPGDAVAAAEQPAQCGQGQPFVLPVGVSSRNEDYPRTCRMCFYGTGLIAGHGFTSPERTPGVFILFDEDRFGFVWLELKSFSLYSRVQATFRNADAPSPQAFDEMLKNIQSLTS

Flag-tagged FBXO31 = molecular target: T2, Flag-tagged FBXO31 (UniProt Q5XUX0)
T2 sequence: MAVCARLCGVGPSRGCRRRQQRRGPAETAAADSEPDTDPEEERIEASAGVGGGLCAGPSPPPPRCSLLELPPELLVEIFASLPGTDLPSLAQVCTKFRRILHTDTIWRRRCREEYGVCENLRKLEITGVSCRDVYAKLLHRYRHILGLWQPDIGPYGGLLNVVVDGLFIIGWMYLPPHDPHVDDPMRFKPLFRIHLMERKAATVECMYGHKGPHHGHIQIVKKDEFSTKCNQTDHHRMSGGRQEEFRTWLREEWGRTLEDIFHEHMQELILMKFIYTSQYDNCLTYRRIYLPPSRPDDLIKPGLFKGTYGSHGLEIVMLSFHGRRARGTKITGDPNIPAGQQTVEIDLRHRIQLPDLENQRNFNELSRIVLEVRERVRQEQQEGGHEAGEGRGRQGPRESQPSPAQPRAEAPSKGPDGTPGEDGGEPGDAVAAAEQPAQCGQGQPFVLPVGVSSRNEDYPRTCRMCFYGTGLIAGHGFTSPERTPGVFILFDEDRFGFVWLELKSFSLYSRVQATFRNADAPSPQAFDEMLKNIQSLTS

mycPar6c = molecular target: T3, mycPar6c (UniProt Q9NPB6)
T3 sequence: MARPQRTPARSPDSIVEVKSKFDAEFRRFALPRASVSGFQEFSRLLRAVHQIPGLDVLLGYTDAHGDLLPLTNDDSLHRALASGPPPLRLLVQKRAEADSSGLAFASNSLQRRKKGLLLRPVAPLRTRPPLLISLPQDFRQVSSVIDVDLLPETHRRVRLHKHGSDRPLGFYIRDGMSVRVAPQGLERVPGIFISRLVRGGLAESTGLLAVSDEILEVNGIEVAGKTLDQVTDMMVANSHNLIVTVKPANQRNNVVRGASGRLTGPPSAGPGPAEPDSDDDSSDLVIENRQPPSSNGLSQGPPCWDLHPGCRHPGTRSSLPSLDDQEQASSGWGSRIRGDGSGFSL

mycSkp1 (from UniProt P63208 1-163)
binding (GFP-FBXO31 WT): binds

B1: mycPar6c (protein, UniProt Q9NPB6 1-346)
chain: MARPQRTPARSPDSIVEVKSKFDAEFRRFALPRASVSGFQEFSRLLRAVHQIPGLDVLLGYTDAHGDLLPLTNDDSLHRALASGPPPLRLLVQKRAEADSSGLAFASNSLQRRKKGLLLRPVAPLRTRPPLLISLPQDFRQVSSVIDVDLLPETHRRVRLHKHGSDRPLGFYIRDGMSVRVAPQGLERVPGIFISRLVRGGLAESTGLLAVSDEILEVNGIEVAGKTLDQVTDMMVANSHNLIVTVKPANQRNNVVRGASGRLTGPPSAGPGPAEPDSDDDSSDLVIENRQPPSSNGLSQGPPCWDLHPGCRHPGTRSSLPSLDDQEQASSGWGSRIRGDGSGFSL
binding (Flag-tagged FBXO31): binds

B2: Flag-tagged FBXO31 (protein, UniProt Q5XUX0 1-539)
chain: MAVCARLCGVGPSRGCRRRQQRRGPAETAAADSEPDTDPEEERIEASAGVGGGLCAGPSPPPPRCSLLELPPELLVEIFASLPGTDLPSLAQVCTKFRRILHTDTIWRRRCREEYGVCENLRKLEITGVSCRDVYAKLLHRYRHILGLWQPDIGPYGGLLNVVVDGLFIIGWMYLPPHDPHVDDPMRFKPLFRIHLMERKAATVECMYGHKGPHHGHIQIVKKDEFSTKCNQTDHHRMSGGRQEEFRTWLREEWGRTLEDIFHEHMQELILMKFIYTSQYDNCLTYRRIYLPPSRPDDLIKPGLFKGTYGSHGLEIVMLSFHGRRARGTKITGDPNIPAGQQTVEIDLRHRIQLPDLENQRNFNELSRIVLEVRERVRQEQQEGGHEAGEGRGRQGPRESQPSPAQPRAEAPSKGPDGTPGEDGGEPGDAVAAAEQPAQCGQGQPFVLPVGVSSRNEDYPRTCRMCFYGTGLIAGHGFTSPERTPGVFILFDEDRFGFVWLELKSFSLYSRVQATFRNADAPSPQAFDEMLKNIQSLTS
binding (mycPar6c): binds
